Results taken from publication PMC9820316, “Novel Arylpiperazine Derivatives of Salicylamide with α1-Adrenolytic Properties Showed Antiarrhythmic and Hypotensive Properties in Rats” (International Journal of Molecular Sciences, 2022).

System: normotensive rats
Experiment: Influence on blood pressure in the normotensive rats
Format: in vivo, rat
Settings: lowest hypotensive dose vs ED50 in adrenaline-induced arrhythmia
Method: The experiment was performed according to the method described earlier. Normotensive Wistar rats were anesthetized with thiopental (75 mg/kg ip). The right carotid artery was cannulated with a polyethylene tube filled with heparin solution, using a Datamax apparatus (Columbus Instruments, Columbus, OH, USA). After 15 min of the stabilization period, the studied compounds were administered iv, and their effect on systolic and diastolic blood pressure was evaluated (Figure 4A).

Compound: Cl.NC(=O)c1ccccc1OCCCCN1CCN(c2cccc(Cl)c2)CC1 [JJGW01, 2-{4-[4-(3-chlorophenyl)piperazin-1-ylo]butoxy}benzamide hydrochloride]
- dose lowering blood pressure relative to the ED50 value for antiarrhythmic effect: 10 fold
